Our source for the inhibition values is patent US4340602A, “Compositions inhibiting estrogen sulfotransferase activity” (Wayne State University, priority 1978, dated 1982).

The target in this test is T1, Bovine Adrenal Estrogen Sulfotransferase (Bos taurus, UniProt P19217).
T1 construct: The enzyme was isolated from the bovine adrenals; from tissue; host or cells: bovine adrenals; purified by ammonium sulfate fractionation and chromatography on DEAE-cellulose or DEAE-Sephadex A-50
T1 sequence (P19217 1-295): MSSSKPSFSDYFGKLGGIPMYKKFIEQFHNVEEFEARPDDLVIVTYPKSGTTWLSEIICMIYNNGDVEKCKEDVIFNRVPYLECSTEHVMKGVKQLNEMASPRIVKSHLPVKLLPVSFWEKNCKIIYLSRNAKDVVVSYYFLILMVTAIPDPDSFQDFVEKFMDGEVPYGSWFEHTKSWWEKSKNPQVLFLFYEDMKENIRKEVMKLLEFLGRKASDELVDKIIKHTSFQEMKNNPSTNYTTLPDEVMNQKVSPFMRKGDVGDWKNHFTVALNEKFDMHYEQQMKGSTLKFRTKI
Put plainly: Inhibition of bovine adrenal estrogen sulfotransferase (estrone sulfurylation). It is filed as biochemical. As to conditions: pH 8.1, read-out: Fractional Inhibition (Table II). Here is the method:
Materials are evaluated for activity as estrogen sulfotransferase inhibitors by the method of Rozhin et al, Journal of Biological Chemistry, 252:7214-7220 (October 25, 1977), herein incorporated by reference.
Isolation of Estrogen Sulfotransferase (EC 2.8.2.4). The enzyme was isolated from the bovine adrenals and purified by ammonium sulfate fractionation and column chromatography on DEAE-cellulose or DEAE-SephadexA-50 [Rozhin et al (1974)].
Standard Enzyme Assay. […] After drying the sheet, samples were visualized by spraying with methylene blue (25 mg in 100 ml of 0.05 N H2 SO4), punched out with a cork borer, and counted in 10 ml of dioxane counting liquid. A blank employing a boiled enzyme sample was incubated and the recorded counts were substracted from each determination. […] An enzyme unit was defined as that quantity of enzyme which synthesized 1 nmol of estrone sulfate in 1 min under chosen conditions. […]
Fractional Inhibition. From kinetic experiments, Ki was calculated as described above under "Data Processing" after making replots of slopes (and/or intercepts) versus inhibitor concentration. […] The dashed line represents the relationship between FI and the Ki of pure noncompetitive inhibition derived mathematically in an analogous manner and expressed as [formula] […]

Molecules are shown by their SMILES.

Broadly, the inhibition is the relative decrease from the control value, in per cent. Consider `CC/C(=C(/CC)c1ccc(O)cc1)c1ccc(O)cc1` [Diethylstilbestrol], for which the inhibition at 22.2 µM was found to be 34%.
